# In the supplement of paper PMC8728848:
# The other results are listed elsewhere or left out.
# Assays:
# Assay in all cases: glycan array binding signal (z-score within array); higher = stronger binding
# Conditions in all cases: glycan notation: IUPAC condensed, linker removed
# [1] = target: GalNAc3S(b1-4)[Fuc(a1-3)]GlcNAc
# How it was run: (§1)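 From the Consortium for Functional Glycomics database, 3228 arrays were curated, keeping only those whose protein sequence was available. Binding is given as a within-array Z-score averaged across arrays sharing a protein sequence and across linkers. Negative Z-scores can be read as non-binding.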
# GalNAc4S6S(b1-4)GlcNAc = target: GalNAc4S6S(b1-4)GlcNAc
# How it was run: as §1
# GalNAc6S(b1-4)GlcNAc = target: GalNAc6S(b1-4)GlcNAc
# How it was run: as §1
# Glc(a1-4)Glc = target: Glc(a1-4)Glc
# How it was run: as §1
# [2] = target: Glc(a1-4)Glc(a1-4)Glc(a1-4)Glc
# How it was run: as §1
# Glc(a1-6)Glc(a1-6)Glc = target: Glc(a1-6)Glc(a1-6)Glc
# How it was run: as §1
# [3] = target: Glc(a1-6)Glc(a1-6)Glc(a1-6)Glc
# How it was run: as §1
# Glc(b1-4)Glc = target: Glc(b1-4)Glc
# How it was run: as §1
# Glc(b1-6)Glc = target: Glc(b1-6)Glc
# How it was run: as §1
# GlcA(b1-3)Gal = target: GlcA(b1-3)Gal
# How it was run: as §1
# GlcA(b1-3)GlcNAc = target: GlcA(b1-3)GlcNAc
# How it was run: as §1
# GlcA(b1-6)Gal = target: GlcA(b1-6)Gal
# How it was run: as §1
# [4] = target: GlcA3S(b1-3)Gal(b1-4)GlcNAc(b1-2)Man
# How it was run: as §1
# [5] = target: GlcA3S(b1-3)Gal(b1-4)GlcNAc(b1-3)Gal(b1-4)Glc
# How it was run: as §1
# [6] = target: GlcNAc(a1-3)Gal(b1-4)GlcNAc
# How it was run: as §1
# [7] = target: GlcNAc(a1-4)Gal(b1-3)GlcNAc
# How it was run: as §1
# [8] = target: GlcNAc(a1-4)Gal(b1-4)GalNAc
# How it was run: as §1
# [9] = target: GlcNAc(a1-4)Gal(b1-4)GlcNAc
# How it was run: as §1
# [10] = target: GlcNAc(a1-4)Gal(b1-4)GlcNAc(b1-3)Gal(b1-4)Glc
# How it was run: as §1
# [11] = target: GlcNAc(a1-4)Gal(b1-4)GlcNAc(b1-3)Gal(b1-4)GlcNAc
# How it was run: as §1
# [12] = target: GlcNAc(a1-4)Gal(b1-4)GlcNAc(b1-3)Gal(b1-4)GlcNAc(b1-3)Gal(b1-4)GlcNAc
# How it was run: as §1
# [13] = target: GlcNAc(a1-4)Gal(b1-4)GlcNAc(b1-3)Gal(b1-4)[Fuc(a1-3)]GlcNAc(b1-3)Gal(b1-4)[Fuc(a1-3)]GlcNAc
# How it was run: as §1
# [14] = target: GlcNAc(a1-6)Gal(b1-4)GlcNAc
# How it was run: as §1
# [15] = target: GlcNAc(b1-2)Gal(b1-3)GalNAc
# How it was run: as §1
# [16] = target: GlcNAc(b1-2)Man(a1-3)[GlcNAc(b1-2)Man(a1-6)]Man(b1-4)GlcNAc(b1-4)GlcNAc
# How it was run: as §1
# [17] = target: GlcNAc(b1-2)Man(a1-3)[GlcNAc(b1-2)Man(a1-6)]Man(b1-4)GlcNAc(b1-4)[Fuc(a1-6)]GlcNAc
# How it was run: as §1
# [18] = target: GlcNAc(b1-2)Man(a1-3)[GlcNAc(b1-4)][GlcNAc(b1-2)Man(a1-6)]Man(b1-4)GlcNAc(b1-4)GlcNAc
# How it was run: as §1
# [19] = target: GlcNAc(b1-2)Man(a1-3)[GlcNAc(b1-4)][GlcNAc(b1-2)Man(a1-6)]Man(b1-4)GlcNAc(b1-4)[Fuc(a1-6)]GlcNAc
# How it was run: as §1
# [20] = target: GlcNAc(b1-2)[GlcNAc(b1-4)]Man(a1-3)[GlcNAc(b1-2)Man(a1-6)]Man(b1-4)GlcNAc(b1-4)GlcNAc
# How it was run: as §1
# [21] = target: GlcNAc(b1-2)[GlcNAc(b1-4)]Man(a1-3)[GlcNAc(b1-4)][GlcNAc(b1-2)Man(a1-6)]Man(b1-4)GlcNAc(b1-4)GlcNAc
# How it was run: as §1
# [22] = target: GlcNAc(b1-2)[GlcNAc(b1-4)]Man(a1-3)[GlcNAc(b1-4)][GlcNAc(b1-2)[GlcNAc(b1-6)]Man(a1-6)]Man(b1-4)GlcNAc(b1-4)GlcNAc
# How it was run: as §1
# [23] = target: GlcNAc(b1-2)[GlcNAc(b1-4)]Man(a1-3)[GlcNAc(b1-4)][GlcNAc(b1-2)[GlcNAc(b1-6)]Man(a1-6)]Man(b1-4)GlcNAc(b1-4)[Fuc(a1-6)]GlcNAc
# How it was run: as §1
# [24] = target: GlcNAc(b1-2)[GlcNAc(b1-6)]Man(a1-6)[GlcNAc(b1-2)Man(a1-3)]Man(b1-4)GlcNAc(b1-4)GlcNAc
# How it was run: as §1
# [25] = target: GlcNAc(b1-2)[GlcNAc(b1-6)]Man(a1-6)[GlcNAc(b1-2)Man(a1-3)]Man(b1-4)GlcNAc(b1-4)[Fuc(a1-6)]GlcNAc
# How it was run: as §1
# [26] = target: GlcNAc(b1-2)[GlcNAc(b1-6)]Man(a1-6)[GlcNAc(b1-4)][GlcNAc(b1-2)Man(a1-3)]Man(b1-4)GlcNAc(b1-4)GlcNAc
# How it was run: as §1
# GlcNAc(b1-3)Fuc = target: GlcNAc(b1-3)Fuc
# How it was run: as §1
# GlcNAc(b1-3)Gal = target: GlcNAc(b1-3)Gal
# How it was run: as §1
# [27] = target: GlcNAc(b1-3)Gal(b1-3)GalNAc
# How it was run: as §1
binder,measurement,setting,value
Gs78B-bfa-542-29-542 (Bacteroides fragilis) (protein) SEDINRNPLLPTKEDEKMDGVIYGAYLPNLEKSVIPIGTASESTEPVNRYQIGVNLAGDAWAGYMSPRDNKFNGSKNFTNYFMYENWVNYVYSFMVTDVYSPWMQIKRISQDEGTRNDEIYALAQIIKIAALHRTTDMFGPIPYSQVGKGSFKVAYDSQESVYRSFLKELEEAVQTLDDYSNKSKEVLPAFDIVYNGDVNKWMRFANSLMLRLAIRVRFADAGLAKEYAEKAVKHPAGLINSKELAAQMGKGAGLQMKNPLKVINEEYNDTRMGATIYSYLAGYNDARAAVYFVKNNGFKAVRCGIAKSGDAYNGFTRPNVHEDDPLYWMKASEVCFLKAEGALAGFDMGGSAGDFYNAGIRMSFSENGLDNSSAETYLKDSTRKPANYTDTSNGELSANAPSSITIRWENGATEEEKLERIITQKYLAIFPNGQEAWTEWRRTGYPRQIVVAENKTNSAVLIGNGYDLGGVRRLPYPRTEYEQNGENLHNAISQYLGGVDNAATKVWWDKKSK,glycan array binding signal (z-score),[1],1.23
same,glycan array binding signal (z-score),GalNAc4S6S(b1-4)GlcNAc,-0.82
same,glycan array binding signal (z-score),GalNAc6S(b1-4)GlcNAc,-0.336
same,glycan array binding signal (z-score),Glc(a1-4)Glc,-0.408
same,glycan array binding signal (z-score),[2],-0.815
same,glycan array binding signal (z-score),Glc(a1-6)Glc(a1-6)Glc,-0.843
same,glycan array binding signal (z-score),[3],-0.625
same,glycan array binding signal (z-score),Glc(b1-4)Glc,-0.847
same,glycan array binding signal (z-score),Glc(b1-6)Glc,-0.312
same,glycan array binding signal (z-score),GlcA(b1-3)Gal,-0.697
same,glycan array binding signal (z-score),GlcA(b1-3)GlcNAc,-0.526
same,glycan array binding signal (z-score),GlcA(b1-6)Gal,2.77
same,glycan array binding signal (z-score),[4],-0.724
same,glycan array binding signal (z-score),[5],-0.813
same,glycan array binding signal (z-score),[6],-0.839
same,glycan array binding signal (z-score),[7],-0.824
same,glycan array binding signal (z-score),[8],-0.269
same,glycan array binding signal (z-score),[9],-0.823
same,glycan array binding signal (z-score),[10],-0.816
same,glycan array binding signal (z-score),[11],-0.691
same,glycan array binding signal (z-score),[12],-0.848
same,glycan array binding signal (z-score),[13],0.629
same,glycan array binding signal (z-score),[14],-0.376
same,glycan array binding signal (z-score),[15],-0.833
same,glycan array binding signal (z-score),[16],-0.817
same,glycan array binding signal (z-score),[17],-0.299
same,glycan array binding signal (z-score),[18],-0.809
same,glycan array binding signal (z-score),[19],-0.857
same,glycan array binding signal (z-score),[20],-0.838
same,glycan array binding signal (z-score),[21],-0.838
same,glycan array binding signal (z-score),[22],-0.851
same,glycan array binding signal (z-score),[23],-0.855
same,glycan array binding signal (z-score),[24],-0.427
same,glycan array binding signal (z-score),[25],-0.837
same,glycan array binding signal (z-score),[26],-0.844
same,glycan array binding signal (z-score),GlcNAc(b1-3)Fuc,-0.822
same,glycan array binding signal (z-score),GlcNAc(b1-3)Gal,-0.85
same,glycan array binding signal (z-score),[27],-0.48
